Reference: patent publication US20240368288A1
Results are given in words; binding and its absence hold for the method and conditions named. Some binding calls cover weakened binding; strength is not graded here.

T1: human FLT-3 as used for epitope mapping by HDX-MS (human) (UniProt P36888)
T1 sequence (looked up): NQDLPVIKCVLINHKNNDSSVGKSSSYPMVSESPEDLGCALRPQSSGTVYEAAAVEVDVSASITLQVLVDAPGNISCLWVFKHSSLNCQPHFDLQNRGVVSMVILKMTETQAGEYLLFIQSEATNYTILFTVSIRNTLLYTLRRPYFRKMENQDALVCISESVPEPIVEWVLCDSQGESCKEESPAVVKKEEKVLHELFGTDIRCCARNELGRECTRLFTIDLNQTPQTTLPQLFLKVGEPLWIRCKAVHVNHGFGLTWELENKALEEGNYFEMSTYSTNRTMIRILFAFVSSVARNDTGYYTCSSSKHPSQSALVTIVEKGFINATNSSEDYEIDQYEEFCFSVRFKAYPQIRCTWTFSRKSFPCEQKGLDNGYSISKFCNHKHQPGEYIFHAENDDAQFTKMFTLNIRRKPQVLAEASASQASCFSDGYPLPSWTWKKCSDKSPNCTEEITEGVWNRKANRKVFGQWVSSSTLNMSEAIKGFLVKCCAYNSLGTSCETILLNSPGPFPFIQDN

B1: 1B11sL3-1 humanized full-length anti-FLT3 antibody (antibody, V domains shown)
VH: QVQLVQSGAEVKKPGSSVKVSCKASGYTFTSYWMHWVRQAPGQGLEWMGEIDPSDSYTNYNQKFKGRVTITADESTSTAYMELSSLRSEDTAVYYCARSAYYSKRDDYWGQGTLVTVSS
VL: EIVLTQSPATLSLSPGERATLSCRASESVDNYGISFMNWYQQKPGQAPRLLIYAASEQGSGIPARFSGSGSGTDFTLTISSLEPEDFAVYYCWQSKEVPWTFGQGTKLEIK
B2: 1-18BAC1 humanized full-length anti-FLT3 antibody (antibody, V domains shown)
VH: QVTLKESGPALVKPTQTLTLTCTFSGFSLSRSTMGVGWIRQPPGKALEWLAHIKWNDSKYYNPALKSRLTISKDTSKNQVVLTMTNMDPVDTATYYCARIVYYSTYVGYFDVWGQGTLVTVSS
VL: DIQMTQSPSSLSASVGDRVTITCRASQEISGYLSWYQQKPEKAPKSLIYAASTLHSGVPSRFSGSGSGTDFTLTISSLQPEDFATYYCLQYASYPLTFGQGTKLEIK

Biological target: T1, human FLT-3 as used for epitope mapping by HDX-MS (human)
Test: HDX-MS of FLT3 alone and in complex with the antibody

Binder	binding
B1	binds
B2	binds
